Assay results reported in the supplement of paper PMC12823440, “Inhibitors supercharge kinase turnover through native proteolytic circuits” (Nature, 2025).
This is one part of the list. Hit calls seldom repeat between salt and free forms of one compound.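 In K562 cells expressing nanoluciferase-fused kinases, luminescence was recorded at 4 h intervals between 2 and 18 h, normalized as percent of control with DMSO at 100% and a positive control at 0%. A significant (2 sigma) signal drop marks a time point as decreased. The authors' rule for a hit is not shown and takes in more than the number of time points.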

By UniProt entry, the sequences of proteins in these tests, tags left out. Where a name states a change or a piece, a line headed by the entry shows the natural chain unless it says otherwise.
UniProt P00519, whole entry: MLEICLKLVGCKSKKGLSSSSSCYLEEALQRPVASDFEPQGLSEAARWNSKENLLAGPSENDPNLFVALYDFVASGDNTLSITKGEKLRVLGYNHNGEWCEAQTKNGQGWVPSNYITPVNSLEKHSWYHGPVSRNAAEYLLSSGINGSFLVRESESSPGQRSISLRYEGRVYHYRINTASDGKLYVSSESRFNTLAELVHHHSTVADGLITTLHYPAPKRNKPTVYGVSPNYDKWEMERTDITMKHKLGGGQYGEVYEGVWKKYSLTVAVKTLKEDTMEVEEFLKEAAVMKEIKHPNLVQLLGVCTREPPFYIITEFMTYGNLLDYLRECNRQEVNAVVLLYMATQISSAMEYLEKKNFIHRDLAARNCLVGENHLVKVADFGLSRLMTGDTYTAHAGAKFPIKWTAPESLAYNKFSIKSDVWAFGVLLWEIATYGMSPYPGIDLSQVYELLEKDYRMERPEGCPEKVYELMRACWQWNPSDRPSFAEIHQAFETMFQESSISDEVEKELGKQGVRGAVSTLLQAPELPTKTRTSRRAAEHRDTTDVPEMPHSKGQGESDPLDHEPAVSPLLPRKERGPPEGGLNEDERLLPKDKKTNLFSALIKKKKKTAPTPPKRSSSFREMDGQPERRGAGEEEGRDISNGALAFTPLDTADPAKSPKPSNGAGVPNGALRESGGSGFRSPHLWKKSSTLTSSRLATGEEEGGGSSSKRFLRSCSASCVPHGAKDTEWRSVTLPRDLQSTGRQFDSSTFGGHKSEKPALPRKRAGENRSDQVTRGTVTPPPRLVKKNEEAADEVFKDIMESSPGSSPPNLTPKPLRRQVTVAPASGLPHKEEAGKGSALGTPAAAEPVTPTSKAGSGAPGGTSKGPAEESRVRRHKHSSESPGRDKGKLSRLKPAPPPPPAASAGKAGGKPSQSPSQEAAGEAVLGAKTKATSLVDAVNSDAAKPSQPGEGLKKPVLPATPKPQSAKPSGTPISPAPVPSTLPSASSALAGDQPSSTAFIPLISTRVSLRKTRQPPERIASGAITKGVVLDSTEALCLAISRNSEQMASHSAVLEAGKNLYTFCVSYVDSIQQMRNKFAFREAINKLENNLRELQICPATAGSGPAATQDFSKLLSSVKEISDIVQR
UniProt Q9UM73: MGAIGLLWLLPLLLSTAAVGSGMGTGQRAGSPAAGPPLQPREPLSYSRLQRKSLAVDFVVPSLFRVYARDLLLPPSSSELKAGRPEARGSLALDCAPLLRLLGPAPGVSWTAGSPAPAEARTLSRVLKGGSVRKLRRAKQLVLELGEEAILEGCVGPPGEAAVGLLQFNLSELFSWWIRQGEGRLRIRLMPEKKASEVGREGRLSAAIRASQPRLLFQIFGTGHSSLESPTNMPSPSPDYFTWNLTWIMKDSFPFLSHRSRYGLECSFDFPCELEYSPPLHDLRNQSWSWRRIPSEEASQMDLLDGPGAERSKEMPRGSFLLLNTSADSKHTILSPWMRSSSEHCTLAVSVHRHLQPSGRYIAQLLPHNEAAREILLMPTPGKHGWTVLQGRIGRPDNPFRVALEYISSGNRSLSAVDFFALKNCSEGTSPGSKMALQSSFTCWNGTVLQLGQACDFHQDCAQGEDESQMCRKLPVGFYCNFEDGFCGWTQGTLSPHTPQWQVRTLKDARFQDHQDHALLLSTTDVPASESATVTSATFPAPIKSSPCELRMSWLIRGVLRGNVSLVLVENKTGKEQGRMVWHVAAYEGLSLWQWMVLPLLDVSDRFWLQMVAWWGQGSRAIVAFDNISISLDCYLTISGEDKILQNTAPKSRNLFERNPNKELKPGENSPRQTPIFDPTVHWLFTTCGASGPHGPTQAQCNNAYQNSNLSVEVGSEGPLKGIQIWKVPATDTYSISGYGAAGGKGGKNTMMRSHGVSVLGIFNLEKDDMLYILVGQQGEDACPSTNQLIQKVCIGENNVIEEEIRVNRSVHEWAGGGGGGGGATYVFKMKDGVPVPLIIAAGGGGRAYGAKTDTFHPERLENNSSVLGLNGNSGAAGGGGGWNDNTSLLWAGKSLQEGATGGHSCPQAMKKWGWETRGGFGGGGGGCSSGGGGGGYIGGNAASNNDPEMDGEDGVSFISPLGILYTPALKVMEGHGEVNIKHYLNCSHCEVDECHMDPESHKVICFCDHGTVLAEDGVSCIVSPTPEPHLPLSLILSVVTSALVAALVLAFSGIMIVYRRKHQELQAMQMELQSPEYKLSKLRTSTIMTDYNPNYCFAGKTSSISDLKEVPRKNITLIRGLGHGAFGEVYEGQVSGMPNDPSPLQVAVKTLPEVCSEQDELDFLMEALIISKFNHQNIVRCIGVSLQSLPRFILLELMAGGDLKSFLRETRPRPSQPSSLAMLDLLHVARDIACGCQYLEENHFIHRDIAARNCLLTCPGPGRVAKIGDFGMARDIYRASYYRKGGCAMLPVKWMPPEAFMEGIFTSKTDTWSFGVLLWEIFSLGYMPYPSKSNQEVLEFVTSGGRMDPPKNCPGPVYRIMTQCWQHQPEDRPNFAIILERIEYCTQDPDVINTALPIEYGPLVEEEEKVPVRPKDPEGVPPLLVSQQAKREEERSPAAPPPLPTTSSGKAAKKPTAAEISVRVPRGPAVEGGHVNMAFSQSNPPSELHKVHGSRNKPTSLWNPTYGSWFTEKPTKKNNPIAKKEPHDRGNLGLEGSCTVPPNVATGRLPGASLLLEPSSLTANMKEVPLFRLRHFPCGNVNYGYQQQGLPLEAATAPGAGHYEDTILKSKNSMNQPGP
UniProt P10398: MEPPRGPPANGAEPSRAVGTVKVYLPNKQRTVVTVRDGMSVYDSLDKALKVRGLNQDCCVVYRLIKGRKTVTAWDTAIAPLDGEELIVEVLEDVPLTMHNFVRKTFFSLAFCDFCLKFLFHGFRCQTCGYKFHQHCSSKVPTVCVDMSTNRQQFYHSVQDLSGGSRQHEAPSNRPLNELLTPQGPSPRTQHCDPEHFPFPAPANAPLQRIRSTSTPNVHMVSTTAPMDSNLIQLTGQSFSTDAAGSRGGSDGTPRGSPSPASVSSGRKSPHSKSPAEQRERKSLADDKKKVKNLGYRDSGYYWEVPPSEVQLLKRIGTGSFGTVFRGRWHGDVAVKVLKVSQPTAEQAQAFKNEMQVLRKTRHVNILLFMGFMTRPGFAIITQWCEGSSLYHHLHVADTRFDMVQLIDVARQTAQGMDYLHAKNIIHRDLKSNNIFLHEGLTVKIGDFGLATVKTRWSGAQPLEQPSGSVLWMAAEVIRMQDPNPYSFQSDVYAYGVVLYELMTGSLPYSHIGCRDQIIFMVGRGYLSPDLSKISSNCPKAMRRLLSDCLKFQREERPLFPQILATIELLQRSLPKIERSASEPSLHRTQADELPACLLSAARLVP
UniProt O14965: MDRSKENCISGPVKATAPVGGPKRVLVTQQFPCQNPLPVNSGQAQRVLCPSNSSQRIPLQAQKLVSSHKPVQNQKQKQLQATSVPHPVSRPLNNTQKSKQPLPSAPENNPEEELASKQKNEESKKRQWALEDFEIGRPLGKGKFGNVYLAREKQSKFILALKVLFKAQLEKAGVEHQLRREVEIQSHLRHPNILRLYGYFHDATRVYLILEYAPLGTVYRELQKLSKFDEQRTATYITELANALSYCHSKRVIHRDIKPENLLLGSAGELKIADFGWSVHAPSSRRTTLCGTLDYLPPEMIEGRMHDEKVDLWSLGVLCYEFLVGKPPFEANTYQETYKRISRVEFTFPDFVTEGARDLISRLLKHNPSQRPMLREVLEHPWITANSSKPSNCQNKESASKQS
UniProt Q9UQB9: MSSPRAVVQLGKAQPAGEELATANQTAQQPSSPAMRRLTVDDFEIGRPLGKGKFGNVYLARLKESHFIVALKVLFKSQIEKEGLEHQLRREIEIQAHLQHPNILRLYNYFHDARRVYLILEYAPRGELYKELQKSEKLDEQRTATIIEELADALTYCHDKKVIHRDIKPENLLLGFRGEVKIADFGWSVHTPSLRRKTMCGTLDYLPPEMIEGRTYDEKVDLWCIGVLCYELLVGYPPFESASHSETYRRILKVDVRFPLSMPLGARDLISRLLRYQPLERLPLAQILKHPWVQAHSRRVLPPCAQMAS
UniProt P51451: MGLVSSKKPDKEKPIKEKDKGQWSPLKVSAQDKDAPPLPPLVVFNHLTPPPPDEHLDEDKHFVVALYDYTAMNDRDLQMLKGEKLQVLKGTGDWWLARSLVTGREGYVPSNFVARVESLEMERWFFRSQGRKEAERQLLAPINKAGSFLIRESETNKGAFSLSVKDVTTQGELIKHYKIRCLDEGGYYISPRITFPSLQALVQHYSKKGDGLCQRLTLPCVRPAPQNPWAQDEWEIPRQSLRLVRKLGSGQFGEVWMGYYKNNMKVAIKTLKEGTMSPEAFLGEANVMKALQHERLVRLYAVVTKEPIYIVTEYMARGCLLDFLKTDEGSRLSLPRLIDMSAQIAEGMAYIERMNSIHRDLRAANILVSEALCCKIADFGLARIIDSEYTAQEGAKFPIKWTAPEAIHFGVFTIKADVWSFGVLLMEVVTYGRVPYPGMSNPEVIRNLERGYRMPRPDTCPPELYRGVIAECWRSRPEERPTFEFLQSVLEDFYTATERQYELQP
UniProt P15056, whole entry, looked up: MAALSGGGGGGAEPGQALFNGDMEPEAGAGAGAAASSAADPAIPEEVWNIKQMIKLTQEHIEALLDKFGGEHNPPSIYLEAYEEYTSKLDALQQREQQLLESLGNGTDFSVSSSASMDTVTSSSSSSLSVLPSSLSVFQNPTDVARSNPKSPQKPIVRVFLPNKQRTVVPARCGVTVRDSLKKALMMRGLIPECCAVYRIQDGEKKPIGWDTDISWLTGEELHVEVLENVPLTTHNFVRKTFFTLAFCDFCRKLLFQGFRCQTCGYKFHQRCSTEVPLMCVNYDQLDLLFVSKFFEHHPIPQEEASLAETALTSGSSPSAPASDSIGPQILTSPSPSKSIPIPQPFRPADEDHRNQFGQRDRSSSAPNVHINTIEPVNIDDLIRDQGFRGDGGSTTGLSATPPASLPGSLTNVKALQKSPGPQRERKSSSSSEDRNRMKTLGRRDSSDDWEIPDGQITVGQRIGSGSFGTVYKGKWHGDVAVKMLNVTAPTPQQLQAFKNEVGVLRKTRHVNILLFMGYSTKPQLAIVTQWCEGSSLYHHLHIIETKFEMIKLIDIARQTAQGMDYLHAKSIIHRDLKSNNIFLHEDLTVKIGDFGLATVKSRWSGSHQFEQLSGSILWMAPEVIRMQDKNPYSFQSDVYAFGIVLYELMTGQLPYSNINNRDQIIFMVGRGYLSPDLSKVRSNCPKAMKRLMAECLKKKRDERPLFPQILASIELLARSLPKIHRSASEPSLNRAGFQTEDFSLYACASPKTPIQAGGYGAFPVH
UniProt Q9UQM7, whole entry: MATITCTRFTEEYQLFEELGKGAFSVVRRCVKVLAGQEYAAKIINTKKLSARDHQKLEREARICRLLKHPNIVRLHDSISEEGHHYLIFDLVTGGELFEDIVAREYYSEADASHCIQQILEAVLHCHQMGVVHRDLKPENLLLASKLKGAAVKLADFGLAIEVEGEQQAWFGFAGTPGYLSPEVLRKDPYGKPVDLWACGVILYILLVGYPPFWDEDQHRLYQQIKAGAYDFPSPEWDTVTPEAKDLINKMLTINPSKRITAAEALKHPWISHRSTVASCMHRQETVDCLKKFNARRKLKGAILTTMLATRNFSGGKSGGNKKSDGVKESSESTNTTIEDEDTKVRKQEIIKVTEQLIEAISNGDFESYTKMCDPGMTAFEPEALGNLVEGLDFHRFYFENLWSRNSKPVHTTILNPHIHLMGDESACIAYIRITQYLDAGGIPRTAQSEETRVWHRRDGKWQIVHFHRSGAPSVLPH
UniProt Q15131: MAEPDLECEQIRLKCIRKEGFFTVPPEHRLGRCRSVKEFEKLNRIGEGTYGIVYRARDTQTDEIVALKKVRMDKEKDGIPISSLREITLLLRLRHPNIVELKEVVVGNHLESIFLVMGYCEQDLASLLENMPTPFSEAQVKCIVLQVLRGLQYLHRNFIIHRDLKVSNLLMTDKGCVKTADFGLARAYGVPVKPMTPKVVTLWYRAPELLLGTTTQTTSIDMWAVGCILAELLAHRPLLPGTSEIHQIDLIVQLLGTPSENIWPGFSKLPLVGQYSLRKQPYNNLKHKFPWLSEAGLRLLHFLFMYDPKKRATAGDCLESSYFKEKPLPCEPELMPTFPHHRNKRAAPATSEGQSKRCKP
UniProt P11802: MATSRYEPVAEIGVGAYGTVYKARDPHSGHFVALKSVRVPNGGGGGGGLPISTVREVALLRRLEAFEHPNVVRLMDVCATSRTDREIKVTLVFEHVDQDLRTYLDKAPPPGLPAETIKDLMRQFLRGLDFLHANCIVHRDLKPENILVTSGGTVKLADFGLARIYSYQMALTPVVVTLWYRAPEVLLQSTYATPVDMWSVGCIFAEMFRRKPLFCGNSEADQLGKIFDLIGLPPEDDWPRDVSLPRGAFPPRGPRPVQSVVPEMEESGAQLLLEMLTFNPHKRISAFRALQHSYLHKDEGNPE

Columns and labels:
Assay in all cases: kinase-Nluc reporter destabilization hit call (1 = scored as downregulated) (binary); higher = compound decreases kinase abundance
Settings in all cases: K562; 2-18 h
ABL1 = ABL1 (UniProt P00519)
AKT1 = AKT1 (UniProt P31749)
ALK = ALK (UniProt Q9UM73)
ARAF = ARAF (UniProt P10398)
AURKA = AURKA (UniProt O14965)
AURKB = AURKB (UniProt Q96GD4)
AURKC = AURKC (UniProt Q9UQB9)
BLK = BLK (UniProt P51451)
BMX = BMX (UniProt P51813)
BRAF = BRAF (UniProt P15056)
BRAF_V600E = test system: BRAF_V600E
BTK = BTK (UniProt Q06187)
CAMK2A = CAMK2A (UniProt Q9UQM7)
CAMK2G = CAMK2G (UniProt Q13555)
CDK10 = CDK10 (UniProt Q15131)
CDK2 = CDK2 (UniProt P24941)
CDK3 = CDK3 (UniProt Q00526)
CDK4 = CDK4 (UniProt P11802)
CDK5 = CDK5 (UniProt Q00535)
CDK6 = CDK6 (UniProt Q00534)

Measured: kinase-Nluc reporter destabilization hit call

Cc1cc(Nc2nc(N[C@@H](C)c3ccc(F)cc3)c(C#N)cc2F)n[nH]1 (10 µM)
inactive: ABL1 = 0 | AKT1 = 0 | ALK 0 | ARAF 0 | AURKA 0 | AURKB 0 | AURKC 0 | BLK 0 | BMX 0 | BRAF 0 | BRAF_V600E 0 | BTK 0 | CAMK2A 0 | CAMK2G 0 | CDK10 = 0 | CDK2 = 0 | CDK3 = 0 | CDK4 = 0 | CDK5 = 0 | CDK6 = 0

O=C(Nc1cccnc1)c1cc(C(=O)c2c(F)cccc2Br)c[nH]1 (10 µM)
inactive: ABL1 = 0 | AKT1 = 0 | ALK 0 | ARAF 0 | AURKA 0 | AURKB 0 | AURKC 0 | BLK 0 | BMX 0 | BRAF 0 | BRAF_V600E 0 | BTK 0 | CAMK2A 0 | CAMK2G 0 | CDK10 = 0 | CDK2 = 0 | CDK3 = 0 | CDK4 = 0 | CDK5 = 0 | CDK6 = 0

CC(=NNC(=O)c1ccc(C)c(Br)c1)c1ccc(O)cc1O [mTOR inhibitor-1] (2.5 µM)
inactive: ABL1 = 0 | AKT1 = 0 | ALK 0 | ARAF 0 | AURKA 0 | AURKB 0 | AURKC 0 | BLK 0 | BMX 0 | BRAF 0 | BRAF_V600E 0 | BTK 0 | CAMK2A 0 | CAMK2G 0 | CDK10 = 0 | CDK2 = 0 | CDK3 = 0 | CDK4 = 0 | CDK5 = 0 | CDK6 = 0

CC(C)CC1(O)CCN(C(=O)c2ccc(NS(=O)(=O)c3cccc4nccnc34)cc2)CC1 (10 µM)
inactive: ABL1 = 0 | AKT1 = 0 | ALK 0 | ARAF 0 | AURKA 0 | AURKB 0 | AURKC 0 | BLK 0 | BMX 0 | BRAF 0 | BRAF_V600E 0 | BTK 0 | CAMK2A 0 | CAMK2G 0 | CDK10 = 0 | CDK2 = 0 | CDK3 = 0 | CDK4 = 0 | CDK5 = 0 | CDK6 = 0

C=CC(=O)Nc1ccc(CN(C(=O)Nc2c(Cl)c(OC)cc(OC)c2Cl)c2cc(Nc3ccc(N4CCN(C)CC4)cc3)ncn2)cc1 (10 µM)
inactive: ABL1 = 0 | AKT1 = 0 | ALK 0 | ARAF 0 | AURKA 0 | AURKB 0 | AURKC 0 | BLK 0 | BMX 0 | BRAF 0 | BRAF_V600E 0 | BTK 0 | CAMK2A 0 | CAMK2G 0 | CDK10 = 0 | CDK2 = 0 | CDK3 = 0 | CDK4 = 0 | CDK5 = 0 | CDK6 = 0

Two records picked at random from the list so far, as already listed:
CC(C)CC1(O)CCN(C(=O)c2ccc(NS(=O)(=O)c3cccc4nccnc34)cc2)CC1 (10 µM)
inactive: ABL1 = 0 | AKT1 = 0 | ALK 0 | ARAF 0 | AURKA 0 | AURKB 0 | AURKC 0 | BLK 0 | BMX 0 | BRAF 0 | BRAF_V600E 0 | BTK 0 | CAMK2A 0 | CAMK2G 0 | CDK10 = 0 | CDK2 = 0 | CDK3 = 0 | CDK4 = 0 | CDK5 = 0 | CDK6 = 0

Cc1cc(Nc2nc(N[C@@H](C)c3ccc(F)cc3)c(C#N)cc2F)n[nH]1 (10 µM)
inactive: ABL1 = 0 | AKT1 = 0 | ALK 0 | ARAF 0 | AURKA 0 | AURKB 0 | AURKC 0 | BLK 0 | BMX 0 | BRAF 0 | BRAF_V600E 0 | BTK 0 | CAMK2A 0 | CAMK2G 0 | CDK10 = 0 | CDK2 = 0 | CDK3 = 0 | CDK4 = 0 | CDK5 = 0 | CDK6 = 0

Remaining list, next part

CC(c1ccc(-c2cnc3c(-c4ccc(S(N)(=O)=O)c5ccccc45)cnn3c2)cc1)N1CCCC1 (stereo not given) (2.5 µM)
inactive: ABL1 = 0 | AKT1 = 0 | ALK 0 | ARAF 0 | AURKA 0 | AURKB 0 | AURKC 0 | BLK 0 | BMX 0 | BRAF 0 | BRAF_V600E 0 | BTK 0 | CAMK2A 0 | CAMK2G 0 | CDK10 = 0 | CDK2 = 0 | CDK3 = 0 | CDK4 = 0 | CDK5 = 0 | CDK6 = 0

COc1cc2ncn(-c3cc(OCc4ccccc4S(C)(=O)=O)c(C#N)s3)c2cc1OC (10 µM)
inactive: ABL1 = 0 | AKT1 = 0 | ALK 0 | ARAF 0 | AURKA 0 | AURKB 0 | AURKC 0 | BLK 0 | BMX 0 | BRAF 0 | BRAF_V600E 0 | BTK 0 | CAMK2A 0 | CAMK2G 0 | CDK10 = 0 | CDK2 = 0 | CDK3 = 0 | CDK4 = 0 | CDK5 = 0 | CDK6 = 0

CCOc1cc(C(=O)N2CCC(N3CCN(C)CC3)CC2)ccc1Nc1ncc2c(n1)N(C1CCCC1)c1ccccc1C(=O)N2C (10 µM)
inactive: ABL1 = 0 | AKT1 = 0 | ALK 0 | ARAF 0 | AURKA 0 | AURKB 0 | AURKC 0 | BLK 0 | BMX 0 | BRAF 0 | BRAF_V600E 0 | BTK 0 | CAMK2A 0 | CAMK2G 0 | CDK10 = 0 | CDK2 = 0 | CDK3 = 0 | CDK4 = 0 | CDK5 = 0 | CDK6 = 0

C[C@@H]1O[C@@H](O[C@H]2[C@H](Oc3cc(O)c4c(=O)cc(-c5ccc(O)cc5)oc4c3)O[C@H](CO)[C@@H](O)[C@@H]2O)[C@H](O)[C@H](O)[C@H]1O [Rhoifolin] (10 µM)
inactive: ABL1 = 0 | AKT1 = 0 | ALK 0 | ARAF 0 | AURKA 0 | AURKB 0 | AURKC 0 | BLK 0 | BMX 0 | BRAF 0 | BRAF_V600E 0 | BTK 0 | CAMK2A 0 | CAMK2G 0 | CDK10 = 0 | CDK2 = 0 | CDK3 = 0 | CDK4 = 0 | CDK5 = 0 | CDK6 = 0

Cn1cc(Nc2nccc(N3C[C@H]4CC[C@@H](C3)N4C(=O)[C@@H]3CC3(F)F)n2)cn1 (10 µM)
inactive: ABL1 = 0 | AKT1 = 0 | ALK 0 | ARAF 0 | AURKA 0 | AURKB 0 | AURKC 0 | BLK 0 | BMX 0 | BRAF 0 | BRAF_V600E 0 | BTK 0 | CAMK2A 0 | CAMK2G 0 | CDK10 = 0 | CDK2 = 0 | CDK3 = 0 | CDK4 = 0 | CDK5 = 0 | CDK6 = 0

NCCN1CCN(C/C=C/C(=O)N2CCC[C@@H](n3nc(-c4ccc(Oc5ccccc5)cc4)c4c(N)ncnc43)C2)CC1 [Ibrutinib-MPEA] (10 µM)
inactive: ABL1 = 0 | AKT1 = 0 | ALK 0 | ARAF 0 | AURKA 0 | AURKB 0 | AURKC 0 | BLK 0 | BMX 0 | BRAF 0 | BRAF_V600E 0 | BTK 0 | CAMK2A 0 | CAMK2G 0 | CDK10 = 0 | CDK2 = 0 | CDK3 = 0 | CDK4 = 0 | CDK5 = 0 | CDK6 = 0

COC1(C(=O)N2Cc3nc(Cl)nc(N[C@H](C)c4cc(N)cc(C(F)(F)F)c4)c3C2)CCOCC1 (10 µM)
inactive: ABL1 = 0 | AKT1 = 0 | ALK 0 | ARAF 0 | AURKA 0 | AURKB 0 | AURKC 0 | BLK 0 | BMX 0 | BRAF 0 | BRAF_V600E 0 | BTK 0 | CAMK2A 0 | CAMK2G 0 | CDK10 = 0 | CDK2 = 0 | CDK3 = 0 | CDK4 = 0 | CDK5 = 0 | CDK6 = 0

Cc1cc(-c2cc(OC(=O)c3ccccc3)ccc2Cl)cc2nnc(Nc3ccc(OCCN4CCCC4)cc3)nc12 (0.5 µM)
inactive: ABL1 = 0 | AKT1 = 0 | ALK 0 | ARAF 0 | AURKA 0 | AURKB 0 | AURKC 0 | BLK 0 | BMX 0 | BRAF 0 | BRAF_V600E 0 | BTK 0 | CAMK2A 0 | CAMK2G 0 | CDK10 = 0 | CDK2 = 0 | CDK3 = 0 | CDK4 = 0 | CDK5 = 0 | CDK6 = 0

C[C@@]1(O)CCC[C@H]1n1c(=O)c(C(F)F)cc2cnc(NC3CCN(S(C)(=O)=O)CC3)nc21 (2.5 µM)
inactive: ABL1 = 0 | AKT1 = 0 | ALK 0 | ARAF 0 | AURKA 0 | AURKB 0 | AURKC 0 | BLK 0 | BMX 0 | BRAF 0 | BRAF_V600E 0 | BTK 0 | CAMK2A 0 | CAMK2G 0 | CDK10 = 0 | CDK2 = 0 | CDK3 = 0 | CDK4 = 0 | CDK5 = 0 | CDK6 = 0

Cc1cc2cc(Nc3ccnc(Nc4ccc5[nH]c(C)cc5c4)n3)ccc2[nH]1 (2.5 µM)
inactive: ABL1 = 0 | AKT1 = 0 | ALK 0 | ARAF 0 | AURKA 0 | AURKB 0 | AURKC 0 | BLK 0 | BMX 0 | BRAF 0 | BRAF_V600E 0 | BTK 0 | CAMK2A 0 | CAMK2G 0 | CDK10 = 0 | CDK2 = 0 | CDK3 = 0 | CDK4 = 0 | CDK5 = 0 | CDK6 = 0

O=c1oc2cc(O)ccc2c2ccccc12 [Urolithin B] (10 µM)
inactive: ABL1 = 0 | AKT1 = 0 | ALK 0 | ARAF 0 | AURKA 0 | AURKB 0 | AURKC 0 | BLK 0 | BMX 0 | BRAF 0 | BRAF_V600E 0 | BTK 0 | CAMK2A 0 | CAMK2G 0 | CDK10 = 0 | CDK2 = 0 | CDK3 = 0 | CDK4 = 0 | CDK5 = 0 | CDK6 = 0

C#CCN(C)C(=O)CCNc1nc(N2CCN(C(=O)C=C)CC2)c2cc(Cl)c(-c3c(O)cccc3F)c(F)c2n1 [ARS-1323-alkyne] (2.5 µM)
inactive: ABL1 = 0 | AKT1 = 0 | ALK 0 | ARAF 0 | AURKA 0 | AURKB 0 | AURKC 0 | BLK 0 | BMX 0 | BRAF 0 | BRAF_V600E 0 | BTK 0 | CAMK2A 0 | CAMK2G 0 | CDK10 = 0 | CDK2 = 0 | CDK3 = 0 | CDK4 = 0 | CDK5 = 0 | CDK6 = 0

Cc1cc(Nc2cc(Cl)nc(Oc3ccc([N+](=O)[O-])cc3)n2)n[nH]1 [Autophinib] (2.5 µM)
inactive: ABL1 = 0 | AKT1 = 0 | ALK 0 | ARAF 0 | AURKA 0 | AURKB 0 | AURKC 0 | BLK 0 | BMX 0 | BRAF 0 | BRAF_V600E 0 | BTK 0 | CAMK2A 0 | CAMK2G 0 | CDK10 = 0 | CDK2 = 0 | CDK3 = 0 | CDK4 = 0 | CDK5 = 0 | CDK6 = 0
